Results published in patent US20090169553A1.
These are yes or no findings as the source states them, for the method shown. A result given as binding can be weak or reduced; the word gives no strength.

Molecular target: tPA (Homo sapiens (Human))
Test: SDS-PAGE, SDS-stable complex with a molar excess of tPA

- binding: binds
B1: TEV cleaved purified native sequence recombinant mouse neuroserpin (protein, UniProt O35684 17-410, looked up)
chain: TGATFPDETITEWSVNMYNHLRGTGEDENILFSPLSIALAMGMMELGAQGSTRKEIRHSMGYEGLKGGEEFSFLRDFSNMASAEENQYVMKLANSLFVQNGFHVNEEFLQMLKMYFNAEVNHVDFSQNVAVANSINKWVENYTNSLLKDLVSPEDFDGVTNLALINAVYFKGNWKSQFRPENTRTFSFTKDDESEVQIPMMYQQGEFYYGEFSDGSNEAGGIYQVLEIPYEGDEISMMLALSRQEVPLATLEPLLKAQLIEEWANSVKKQKVEVYLPRFTVEQEIDLKDILKALGVTEIFIKDANLTAMSDKKELFLSKAVHKSCIEVNEEGSEAAAASGMIAISRMAVLYPQVIVDHPFLYLIRNRKSGIILFMGRVMNPETMNTSGHDFEEL
